Some entries share one result that the patent states for a list of compounds. At least one compound was matched to its structure with a doubt left.
How the values were obtained:
Format in all cases: in vivo
Heliothis virescens eggs = assay: Activity against Heliothis virescens (application to eggs); conditions: 400 ppm spray on eggs deposited on cotton; 8 days
Spodoptera littoralis = assay: Activity against Spodoptera littoralis; conditions: 400 ppm spray on young soya plants; 1st instar caterpillars; 3 days
Protocol: (§1) Young soya plants are sprayed with an aqueous emulsion spray mixture comprising 400 ppm of active ingredient and, after the spray coating has dried on, populated with 10 caterpillars (1st instar) of Spodoptera littoralis and introduced into a plastic container. 3 days later, the percentage reduction in the population and in the feeding damage (% activity) are determined by comparing the number of dead caterpillars and the feeding damage between the treated and untreated plants.

Plutella xylostella = assay: Activity against Plutella xylostella; conditions: 400 ppm spray on young cabbage plants; 3rd instar caterpillars; 3 days
Protocol: as §1, with “cabbage” for “soya”, “(3rd” for “(1st”, “Plutella xylostella” for “Spodoptera littoralis”

SMILES | percentage hatching rate of the eggs and survival rate of the caterpillars (% activity) (Heliothis virescens eggs) | percentage reduction in the population and in the feeding damage (% activity) (Spodoptera littoralis) | percentage reduction in the population and in the feeding damage (% activity) (Plutella xylostella)
O=C(NCC1CC1)c1cc2nccnc2c(Cl)c1NC(=O)c1cc(C(F)(F)F)nn1-c1ncccc1Cl [Compound T1.1.14, 8-chloro-7-{[2-(3-chloro-pyridin-2-yl)-5-trifluoromethyl-2H-pyrazole-3-carbonyl]-amino}-quinoxaline-6-carboxylic acid cyclopropylmethyl-amide] | over 80% |  | 
CNC(=O)c1cc2nccnc2c(Cl)c1NC(=O)c1cc(OCC(F)(F)F)nn1-c1ncccc1Cl [Compound T1.1.56] | over 80% | over 80% | over 80%
O=C(NCC1CC1)c1cc2nccnc2c(Cl)c1NC(=O)c1cc(OCC(F)(F)F)nn1-c1ncccc1Cl [Compound T1.1.68] | over 80% | over 80% | over 80%
CSCC(C)(C)NC(=O)c1cc2nccnc2c(Cl)c1NC(=O)c1cc(C(F)(F)F)nn1-c1ncccc1Cl [Compound T1.1.73] | over 80% |  | over 80%
CSCC(C)(C)NC(=O)c1cc2nccnc2c(Cl)c1NC(=O)c1cc(OCC(F)(F)F)nn1-c1ncccc1Cl [Compound T1.1.74] |  | over 80% | over 80%
CNC(=O)c1cc2nc(C(F)(F)F)ccc2c(C)c1NC(=O)c1cc(C(F)(F)F)nn1-c1ncccc1Cl [Compound T8.1.1, 6-{[2-(3-Chloro-pyridin-2-yl)-5-trifluoromethyl-2H-pyrazole-3-carbonyl]-amino}-5-methyl-2-trifluoromethyl-quinoline-7-carboxylic acid methyl amide] | over 80% |  | 
CNC(=O)c1cc2nc(C(F)(F)F)ccc2c(Cl)c1NC(=O)c1cc(C(F)(F)F)nn1-c1ncccc1Cl [Compound T8.1.2, 5-Chloro-6-{[2-(3-chloro-pyridin-2-yl)-5-trifluoromethyl-2H-pyrazole-3-carbonyl]-amino}-2-trifluoromethyl-quinoline-7-carboxylic acid methyl amide] | over 80% |  | 
CCNC(=O)c1cc2nc(C(F)(F)F)ccc2c(Br)c1NC(=O)c1cc(C(F)(F)F)nn1-c1ncccc1Cl [Compound T8.1.6] | over 80% | over 80% | over 80%
CSCC(C)(C)NC(=O)c1cc2nc(C(F)(F)F)ccc2c(Cl)c1NC(=O)c1cc(C(F)(F)F)nn1-c1ncccc1Cl [Compound T8.1.88] |  |  | over 80%
CCNC(=O)c1cc2nc(C(F)(F)F)ccc2c(OC)c1NC(=O)c1cc(C(F)(F)F)nn1-c1ncccc1Cl [Compound T8.1.122] | over 80% |  | 
COc1c(NC(=O)c2cc(C(F)(F)F)nn2-c2ncccc2Cl)c(C(=O)NC(C)C)cc2nc(C(F)(F)F)ccc12 [Compound T8.1.123] | over 80% |  | 
CNC(=O)c1cc2nsnc2c(Cl)c1NC(=O)c1cc(C(F)(F)F)nn1-c1ncccc1Cl [Compound T20.1.2, 7-chloro-6-{[2-(3-chloro-pyridin-2-yl)-5-trifluoromethyl-2H-pyrazole-3-carbonyl]-amino}-benzo[1,2,5]thiadiazole-5-carboxylic acid methylamide] | over 80% |  | 
CC(C)NC(=O)c1cc2nsnc2c(Cl)c1NC(=O)c1cc(C(F)(F)F)nn1-c1ncccc1Cl [Compound T20.1.8, 7-chloro-6-{[2-(3-chloro-pyridin-2-yl)-5-trifluoromethyl-2H-pyrazole-3-carbonyl]-amino}-benzo[1,2,5]thiadiazole-5-carboxylic acid isopropylamide] | over 80% |  | 
O=C(NCC1CC1)c1cc2nsnc2c(Cl)c1NC(=O)c1cc(C(F)(F)F)nn1-c1ncccc1Cl [Compound T20.1.14, 7-chloro-6-{[2-(3-chloro-pyridin-2-yl)-5-trifluoromethyl-2H-pyrazole-3-carbonyl]-amino}-benzo[1,2,5]thiadiazole-5-carboxylic acid cyclopropylmethyl-amide] | over 80% |  | 
CC(C)NC(=O)c1cc2[nH]cnc2c(Cl)c1NC(=O)c1cc(C(F)(F)F)nn1-c1ncccc1Cl [Compound T21.1.8, 7-chloro-6-{[2-(3-chloro-pyridin-2-yl)-5-trifluoromethyl-2H-pyrazole-3-carbonyl]-amino}-3H-benzoimidazole-5-carboxylic acid isopropylamide] | over 80% |  | 
CC(C)NC(=O)c1cc2ncn(C)c2c(Cl)c1NC(=O)c1cc(C(F)(F)F)nn1-c1ncccc1Cl [Compound T22.1.8, 7-chloro-6-{[2-(3-chloro-pyridin-2-yl)-5-trifluoromethyl-2H-pyrazole-3-carbonyl]-amino}-1-methyl-1H-benzoimidazole-5-carboxylic acid isopropylamide] | over 80% |  | 
Cn1cnc2cc(C(=O)NCC3CC3)c(NC(=O)c3cc(C(F)(F)F)nn3-c3ncccc3Cl)c(Cl)c21 [Compound T22.1.14] | over 80% |  | 

SMILES | percentage hatching rate of the eggs and survival rate of the caterpillars (% activity) (Heliothis virescens eggs) | percentage reduction in the population and in the feeding damage (% activity) (Spodoptera littoralis) | percentage reduction in the population and in the feeding damage (% activity) (Plutella xylostella)
Cc1nc2cc(C(=O)NC(C)C)c(NC(=O)c3cc(C(F)(F)F)nn3-c3ncccc3Cl)c(Cl)c2n1C [Compound T35.1.8, 7-chloro-6-{[2-(3-chloro-pyridin-2-yl)-5-trifluoromethyl-2H-pyrazole-3-carbonyl]-amino}-1,2-dimethyl-1H-benzoimidazole-5-carboxylic acid isopropylamide] | over 80% |  | 
CCc1nc2cc(C(=O)NC(C)C)c(NC(=O)c3cc(C(F)(F)F)nn3-c3ncccc3Cl)c(Cl)c2[nH]1 [Compound T36.1.8] |  |  | over 80%
CCNC(=O)c1cc2nc(C3CC3)n(C)c2c(C)c1NC(=O)c1cc(C(F)(F)F)nn1-c1ncccc1Cl [Compound T37.1.4] | over 80% |  | 
CC(C)NC(=O)c1cc2nc(C3CC3)n(C)c2c(Cl)c1NC(=O)c1cc(C(F)(F)F)nn1-c1ncccc1Cl [Compound T37.1.8, 7-chloro-6-{[2-(3-chloro-pyridin-2-yl)-5-trifluoromethyl-2H-pyrazole-3carbonyl]-amino}-2-cyclopropyl-1-methyl-1H-benzoimidazole-5-carboxylic acid isopropylamide] | over 80% |  | 
O=C(NCC1CC1)c1cc2nc(C(F)(F)F)[nH]c2c(Cl)c1NC(=O)c1cc(C(F)(F)F)nn1-c1ncccc1Cl [Compound T40.1.14] |  |  | over 80%
O=C(NCC1CC1)c1cc2nc(C(F)F)[nH]c2c(Cl)c1NC(=O)c1cc(C(F)(F)F)nn1-c1ncccc1Cl [Compound T41.1.14] |  |  | over 80%
CSc1nc2cc(C(=O)NC(C)C)c(NC(=O)c3cc(C(F)(F)F)nn3-c3ncccc3Cl)c(Cl)c2[nH]1 [Compound T51.1.8] | over 80% |  | over 80%
CSc1nc2cc(C(=O)NCC3CC3)c(NC(=O)c3cc(C(F)(F)F)nn3-c3ncccc3Cl)c(Cl)c2[nH]1 [Compound T51.1.14] | over 80% |  | over 80%
CC(C)NC(=O)c1cc2nc(C[S+](C)[O-])[nH]c2c(Cl)c1NC(=O)c1cc(C(F)(F)F)nn1-c1ncccc1Cl (stereo not drawn) [Compound T53.1.8] |  | over 80% | 
CC(C)NC(=O)c1cc2nc(CS(C)(=O)=O)[nH]c2c(Cl)c1NC(=O)c1cc(C(F)(F)F)nn1-c1ncccc1Cl [Compound T54.1.8] |  | over 80% | 
CC(C)NC(=O)c1cc2nc(C(F)(F)F)n(C)c2c(Cl)c1NC(=O)c1cc(C(F)(F)F)nn1-c1ncccc1Cl [Compound T117.1.8] |  | over 80% | over 80%
Cn1c(C(F)(F)F)nc2cc(C(=O)NCC3CC3)c(NC(=O)c3cc(C(F)(F)F)nn3-c3ncccc3Cl)c(Cl)c21 [Compound T117.1.14] |  | over 80% | over 80%
Cc1nc2cc(C(=O)NC(C)C)c(NC(=O)c3cc(C(F)(F)F)nn3-c3ncccc3Cl)c(Cl)c2[nH]1 [Compound T119.1.8] |  |  | over 80%
Cc1nc2cc(C(=O)NCC3CC3)c(NC(=O)c3cc(C(F)(F)F)nn3-c3ncccc3Cl)c(Cl)c2[nH]1 [Compound T119.1.14] |  |  | over 80%
CSCC(C)(C)NC(=O)c1cc2nccnc2c(Cl)c1NC(=O)c1cc(C(F)(F)F)nn1-c1ncccc1Cl [t1.1.73] |  | over 80% | 
CC(C)NC(=O)c1cc2ncsc2c(Cl)c1NC(=O)c1cc(C(F)(F)F)nn1-c1ncccc1Cl [t23.1.8] |  |  | over 80%

From patent US8580785B2, “Insecticides” (Syngenta Crop Protection LLC, priority 2005, dated 2013)
